Article PMC4747346, “Interaction of RECQ4 and MCM10 is important for efficient DNA replication origin firing in human cells” (Oncotarget, 2015)
Results are given in words; binding and its absence hold for the method and conditions named. For part of these data: In cells and extracts the contact can be indirect. For part of these data: A result given as binding can be weak or reduced; the word gives no strength. For part of these data: Sequences can lack the tags named with a protein.

Chains of the proteins cited; added tags and fusions are not shown. Lines headed by an entry give the natural chain unless they say otherwise; changes in a name come on top.
UniProt O94761: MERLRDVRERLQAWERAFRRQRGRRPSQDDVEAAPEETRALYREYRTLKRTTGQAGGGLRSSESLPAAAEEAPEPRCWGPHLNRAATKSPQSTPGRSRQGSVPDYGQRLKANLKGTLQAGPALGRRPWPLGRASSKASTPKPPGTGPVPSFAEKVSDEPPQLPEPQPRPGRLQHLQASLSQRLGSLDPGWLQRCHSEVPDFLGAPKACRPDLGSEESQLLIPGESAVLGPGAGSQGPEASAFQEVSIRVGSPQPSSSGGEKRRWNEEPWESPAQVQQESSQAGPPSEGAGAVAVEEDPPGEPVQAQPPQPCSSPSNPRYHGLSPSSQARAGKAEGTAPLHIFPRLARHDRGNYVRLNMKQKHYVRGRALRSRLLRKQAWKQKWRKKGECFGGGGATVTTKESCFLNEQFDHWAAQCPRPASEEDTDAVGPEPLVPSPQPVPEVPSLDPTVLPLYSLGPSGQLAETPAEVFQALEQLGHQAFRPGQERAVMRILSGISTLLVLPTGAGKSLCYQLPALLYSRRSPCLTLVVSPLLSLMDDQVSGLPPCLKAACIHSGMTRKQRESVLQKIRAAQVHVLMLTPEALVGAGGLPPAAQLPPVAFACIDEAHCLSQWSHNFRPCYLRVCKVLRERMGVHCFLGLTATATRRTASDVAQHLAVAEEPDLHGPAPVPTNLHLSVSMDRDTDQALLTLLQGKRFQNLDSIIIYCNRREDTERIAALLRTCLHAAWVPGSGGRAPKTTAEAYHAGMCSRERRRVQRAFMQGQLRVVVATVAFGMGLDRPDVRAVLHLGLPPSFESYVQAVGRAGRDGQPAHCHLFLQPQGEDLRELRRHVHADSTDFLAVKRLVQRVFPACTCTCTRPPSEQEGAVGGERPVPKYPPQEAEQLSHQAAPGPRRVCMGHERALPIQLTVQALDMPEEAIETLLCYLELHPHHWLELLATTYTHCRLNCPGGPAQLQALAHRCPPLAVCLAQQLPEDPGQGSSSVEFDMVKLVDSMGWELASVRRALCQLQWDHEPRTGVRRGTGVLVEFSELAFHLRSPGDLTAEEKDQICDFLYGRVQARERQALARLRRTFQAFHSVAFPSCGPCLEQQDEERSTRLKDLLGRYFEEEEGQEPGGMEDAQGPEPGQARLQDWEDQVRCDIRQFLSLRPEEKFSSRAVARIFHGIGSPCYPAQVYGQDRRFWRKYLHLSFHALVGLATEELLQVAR
UniProt Q7Z2Z1: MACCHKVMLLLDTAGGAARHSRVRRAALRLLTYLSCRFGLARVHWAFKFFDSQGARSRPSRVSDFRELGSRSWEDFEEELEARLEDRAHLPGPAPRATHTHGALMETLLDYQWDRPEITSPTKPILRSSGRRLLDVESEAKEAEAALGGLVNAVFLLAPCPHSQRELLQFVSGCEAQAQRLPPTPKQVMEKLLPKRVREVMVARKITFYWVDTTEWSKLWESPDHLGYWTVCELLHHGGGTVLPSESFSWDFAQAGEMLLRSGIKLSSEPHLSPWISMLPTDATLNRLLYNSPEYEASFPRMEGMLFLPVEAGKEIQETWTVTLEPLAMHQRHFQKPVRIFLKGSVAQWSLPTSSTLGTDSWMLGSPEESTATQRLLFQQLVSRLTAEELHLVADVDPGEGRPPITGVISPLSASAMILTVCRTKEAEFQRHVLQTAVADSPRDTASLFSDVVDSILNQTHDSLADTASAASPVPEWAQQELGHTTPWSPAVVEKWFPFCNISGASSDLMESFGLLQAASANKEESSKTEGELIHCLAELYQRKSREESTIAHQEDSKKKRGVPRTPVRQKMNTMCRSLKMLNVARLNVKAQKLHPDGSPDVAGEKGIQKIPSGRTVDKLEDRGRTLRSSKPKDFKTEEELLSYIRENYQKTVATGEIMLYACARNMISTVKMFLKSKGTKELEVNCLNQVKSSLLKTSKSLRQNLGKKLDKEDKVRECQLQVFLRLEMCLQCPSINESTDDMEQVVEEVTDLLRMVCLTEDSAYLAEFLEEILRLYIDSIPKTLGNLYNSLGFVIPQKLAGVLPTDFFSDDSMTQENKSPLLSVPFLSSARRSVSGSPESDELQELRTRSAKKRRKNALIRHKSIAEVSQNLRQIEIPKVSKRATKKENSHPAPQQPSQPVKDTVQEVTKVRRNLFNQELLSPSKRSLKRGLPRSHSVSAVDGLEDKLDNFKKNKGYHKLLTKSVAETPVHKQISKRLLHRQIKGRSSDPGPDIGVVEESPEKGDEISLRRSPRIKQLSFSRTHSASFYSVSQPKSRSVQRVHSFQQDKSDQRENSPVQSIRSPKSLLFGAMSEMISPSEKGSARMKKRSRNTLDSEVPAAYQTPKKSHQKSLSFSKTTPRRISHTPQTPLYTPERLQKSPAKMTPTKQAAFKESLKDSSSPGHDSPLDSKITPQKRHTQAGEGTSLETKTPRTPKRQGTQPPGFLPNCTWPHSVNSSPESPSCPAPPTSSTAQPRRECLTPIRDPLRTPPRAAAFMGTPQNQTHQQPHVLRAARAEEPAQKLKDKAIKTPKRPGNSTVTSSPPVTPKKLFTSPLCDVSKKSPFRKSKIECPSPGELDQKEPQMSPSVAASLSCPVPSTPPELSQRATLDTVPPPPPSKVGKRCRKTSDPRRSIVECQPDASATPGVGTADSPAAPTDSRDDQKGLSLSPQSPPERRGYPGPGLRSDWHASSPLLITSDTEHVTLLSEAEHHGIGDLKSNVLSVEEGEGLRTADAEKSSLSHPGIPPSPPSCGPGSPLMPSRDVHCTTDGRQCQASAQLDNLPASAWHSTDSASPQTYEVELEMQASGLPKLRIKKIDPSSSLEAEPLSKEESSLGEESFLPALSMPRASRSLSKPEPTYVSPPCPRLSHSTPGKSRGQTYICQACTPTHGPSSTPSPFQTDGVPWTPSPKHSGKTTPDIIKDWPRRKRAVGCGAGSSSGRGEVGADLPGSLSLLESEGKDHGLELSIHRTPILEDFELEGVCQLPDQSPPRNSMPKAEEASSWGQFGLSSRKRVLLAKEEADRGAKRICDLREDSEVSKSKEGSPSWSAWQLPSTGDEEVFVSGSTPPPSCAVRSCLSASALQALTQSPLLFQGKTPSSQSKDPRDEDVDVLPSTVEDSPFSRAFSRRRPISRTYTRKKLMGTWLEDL

Assays:
[1] = target: T1, GST-MCM10 (human) (UniProt Q7L590); test: pull-down; GST or GST-MCM10 on GSH beads (about 1 μg) incubated with purified HIS-RECQ4 (about 1 μg) or purified MBP-RECQ4-HIS fragments in YFP pull-down buffer, 1 h at 4°C; immunoblot for RECQ4; both purified
T1 sequence: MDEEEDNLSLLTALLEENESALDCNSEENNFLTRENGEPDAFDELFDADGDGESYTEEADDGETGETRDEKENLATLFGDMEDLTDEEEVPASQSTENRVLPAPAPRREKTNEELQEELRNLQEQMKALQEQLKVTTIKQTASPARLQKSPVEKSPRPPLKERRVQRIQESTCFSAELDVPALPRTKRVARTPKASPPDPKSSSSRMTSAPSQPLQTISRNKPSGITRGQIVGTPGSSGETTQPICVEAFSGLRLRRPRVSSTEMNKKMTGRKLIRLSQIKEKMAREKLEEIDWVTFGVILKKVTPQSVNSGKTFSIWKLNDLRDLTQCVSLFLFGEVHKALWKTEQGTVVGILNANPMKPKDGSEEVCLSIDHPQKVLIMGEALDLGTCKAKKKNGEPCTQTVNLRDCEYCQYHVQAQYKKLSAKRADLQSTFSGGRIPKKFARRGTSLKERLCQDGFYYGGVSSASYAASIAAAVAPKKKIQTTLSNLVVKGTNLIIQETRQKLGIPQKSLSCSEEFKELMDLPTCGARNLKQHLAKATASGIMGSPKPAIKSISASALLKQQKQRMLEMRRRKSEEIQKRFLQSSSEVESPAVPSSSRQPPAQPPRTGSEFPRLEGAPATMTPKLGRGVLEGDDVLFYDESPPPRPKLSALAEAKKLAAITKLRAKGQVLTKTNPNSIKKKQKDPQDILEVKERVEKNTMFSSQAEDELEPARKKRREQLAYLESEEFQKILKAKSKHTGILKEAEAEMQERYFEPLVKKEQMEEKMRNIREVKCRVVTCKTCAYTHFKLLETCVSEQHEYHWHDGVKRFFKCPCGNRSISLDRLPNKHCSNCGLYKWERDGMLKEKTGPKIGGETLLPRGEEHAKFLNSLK

[2] = target: YFP-RECQ4-ΔFL (human) (UniProt O94761); test: co-IP; YFP proteins precipitated with GFP-Trap beads from lysates of transiently transfected U2OS cells (asynchronous, hydroxyurea-arrested, HU-released or nocodazole-arrested); pull-down buffer 10 mM Tris pH 7.5, 200 mM KCl, 10% glycerol, 2 mM MgCl2, 0.5 mM DTT, 0.5% NP-40, benzonase; 2 h at 4°C; immunoblot
[3] = target: YFP-RECQ4-ΔID1 (human) (UniProt O94761); test: as above

Substance	binding [1]	binding [2]	binding [3]
MBP-RECQ4 1-400-HIS with the ΔFL deletion (from UniProt O94761) (domain or fragment)	no binding		
TRESLIN (endogenous, U2OS) (from UniProt Q7Z2Z1 1-1910)		binds	binds
